At least one structure is not confirmed: it was looked up by name or label, or the drawing left a doubt.
Legend:
[1] = Liver biochemistry (ALT, alkaline phosphatase) of PBC patients under therapy; type: in vivo, human; conditions: one PBC patient (FIG. 4), UDCA treatment for 4 years
human β-retrovirus [2] = conditions: 9 PBC patients taking lamivudine; 5 of 9 had detectable virus in serum prior to treatment; cited from earlier work
human β-retrovirus [3] = experiment: Real-time RT-PCR (TaqMan) viral load in serial serum samples of PBC patients under therapy; type: in vivo

C[C@H](CCC(=O)O)[C@H]1CC[C@H]2[C@@H]3[C@@H](O)C[C@@H]4C[C@H](O)CC[C@]4(C)[C@H]3CC[C@]12C [UDCA, ursodeoxycholic acid]
response of PBC to treatment [1]: unresponsive

Nc1ccn([C@@H]2CS[C@H](CO)O2)c(=O)n1 [lamivudine]
patients with detectable virus in serum after treatment (human β-retrovirus [2]): 4 | viral levels corresponding with antiviral treatment (human β-retrovirus [3]; cDNA from serial serum samples of PBC patients, preliminary studies): reduction of viral levels | response in viral load (human β-retrovirus [3]; one PBC patient (FIG. 4), after 3 months of lamivudine therapy): partial biochemical response | course after the partial response in viral load, ALT and alkaline phosphatase (human β-retrovirus [3]; one PBC patient (FIG. 4), after the first 3 months of lamivudine therapy): relapsed
